Data taken from patent US20090226444A1 (MICROMET, published 2009).
Results are given in words; binding and its absence hold for the method and conditions named. Some entries that bind do so weakly or less than the wild type.

The chains behind the UniProt entries cited, without tags or fusion partners. Where a name states a change or a piece, a line headed by the entry shows the natural chain unless it says otherwise.
UniProt P06731: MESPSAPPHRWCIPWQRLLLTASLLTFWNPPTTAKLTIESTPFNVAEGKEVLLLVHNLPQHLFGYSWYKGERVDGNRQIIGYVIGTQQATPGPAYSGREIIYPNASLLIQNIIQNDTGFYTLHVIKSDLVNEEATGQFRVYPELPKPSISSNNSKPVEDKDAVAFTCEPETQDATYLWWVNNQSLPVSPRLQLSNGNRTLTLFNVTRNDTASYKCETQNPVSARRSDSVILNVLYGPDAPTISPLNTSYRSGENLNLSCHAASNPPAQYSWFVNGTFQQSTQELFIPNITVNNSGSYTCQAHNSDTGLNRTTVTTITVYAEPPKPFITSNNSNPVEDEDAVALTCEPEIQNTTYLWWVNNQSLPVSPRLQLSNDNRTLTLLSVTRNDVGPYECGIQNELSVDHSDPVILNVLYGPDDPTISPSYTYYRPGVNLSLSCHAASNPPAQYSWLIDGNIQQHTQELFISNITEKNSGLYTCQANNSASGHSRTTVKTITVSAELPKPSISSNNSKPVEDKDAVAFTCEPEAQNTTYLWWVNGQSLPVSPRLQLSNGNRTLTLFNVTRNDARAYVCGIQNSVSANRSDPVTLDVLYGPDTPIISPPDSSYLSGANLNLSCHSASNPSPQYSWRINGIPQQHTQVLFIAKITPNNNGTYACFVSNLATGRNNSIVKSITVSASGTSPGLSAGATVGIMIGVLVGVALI

Legend:
[1] = target: soluble human CEA antigen (sCEA; Abcam, Ltd, Cambridge UK) (human) (UniProt P06731); test: summary of Example 2 (ELISA on sCEA)
[2] = target: soluble human CEA antigen (sCEA; Abcam, Ltd, Cambridge UK) (human) (UniProt P06731); test: ELISA on immobilized CEA antigen; culture supernatant, 10 and 1 ug/ml antibody
[3] = target: soluble human CEA antigen (sCEA; Abcam, Ltd, Cambridge UK) (human) (UniProt P06731); test: ELISA on immobilized sCEA

Measured: binding

B1: huIgG1 CEA I derived from antibody CEA I (A5B7) (antibody, V domains shown)
VH: EVQLVESGGGLVQPGGSLRLSCATSGFTFTDYYMNWVRQPPGKALEWLGFIGNKANGYTTEYSASVKGRFTISRDKSQSILYLQMNTLRAEDSATYYCTRDRGLRFYFDYWGQGTTVTVSS
VL: DIELTQSPAILSASPGEKVTMTCRASSSVTYIHWYQQKPGSSPKSWIYATSNLASGVPARFSGSGSGTSYSLTISRVEAEDAATYYCQHWSSKPPTFGGGTKLEIKR
binds: [1] | [2] | [3]
